# Assay results

From PubChem BioAssay record AID1159506 (NCATS, 2015).

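Genome-wide siRNA knockdown in TC32 Ewing sarcoma cells, comparing luciferase light from an NR0B1-promoter reporter with a CMV-promoter reporter 48 hours after transfection. Each siRNA was applied at 20 nM. A z-score of the log NR0B1-over-CMV signal, less the median of siRNAs with the same seed; more negative means a stronger specific loss of the NR0B1 reporter.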

The strongest results of the screen are mostly left out here. Sequences are the guide (antisense) strand, without overhang.

AUCCGAGACAUGAUCACCG against SLC35E2 gave seed-corrected z-score 0.5373. Result for UGAUGGAUUGAGCCUGUGC against OR7G3 was seed-corrected z-score -0.6539. UUUCAUUCCAUAAACAUAA against SLC6A18 read seed-corrected z-score 0.4777. UUCCGGCUCAAAAACUGCC against ADAP1 read seed-corrected z-score -0.8494. For UCAGGAUUUUCAUCUCUUC against CFAP36 the result was seed-corrected z-score 1.164. With UGUAGUGUCCAAAUAGUGU against CRK the assay gave seed-corrected z-score 0.5282. AGAUCUGCCUCUCUAAUGC against NKAIN3 read seed-corrected z-score -1.838.

With AAAAUAGUUGCGUCCGUUG against LOC400958 the assay gave seed-corrected z-score -0.7033. With UUUUAAUACAGGUACAUGU against RLN2 the assay gave seed-corrected z-score 0.5137. With UACUUCCUGAUCUAAAUUG against RBM7 the assay gave seed-corrected z-score -0.0795. UGUAGCUAUAAUUGUAUCC against FCN2 read seed-corrected z-score -0.5595. Result for UUUAAAGAUAGCAAAGAUG against LRRD1 was seed-corrected z-score 0.6874. UCAAUGAUAGCGGAGAUAU against CYP4F22 gave seed-corrected z-score -0.04562. UUUCUGGUCAAAAACAUUC against SMIM7 gave seed-corrected z-score 0.269.

UAAGGUCCCAGACCCAUUC against KIAA0907 gave seed-corrected z-score 1.041. For UAUCUUCCACAGUCCACUC against RCOR1 the result was seed-corrected z-score -0.632. UAGGAUAGCAGGAAGGAUG against SLC2A3 read seed-corrected z-score 1.863. UCUUUCAGAUGGGCCCUCC against MNT read seed-corrected z-score 0.2956. UUGUUACCAAGAGUCUACC against BBS5 read seed-corrected z-score 0.2935. Result for UUUCGGAUGAUCCUUCUUG against APBB2 was seed-corrected z-score 0.5746. AUCGCUAUCAGAGUUCGCC against MPHOSPH8 read seed-corrected z-score -0.2075.

UCCAGAAGAAACAAGUAGC against TBX6 gave seed-corrected z-score 0.1678. Result for AUAGUUCUUAGGUUCUGUG against SCAMP3 was seed-corrected z-score 0.7244. UUCCUACAAACCAAUUUCC against PVRL3 read seed-corrected z-score 0.4224. UCUCGUUCUAUACCAUUCC against TEX10 read seed-corrected z-score -0.1106. With UGAAGGACCAGAAUAAGUG against ELOVL3 the assay gave seed-corrected z-score 0.00727. With AAUGUAGCUCAUCAUGUCC against PIGS the assay gave seed-corrected z-score 1.135. For UCAGAUGCGAACUCUUGGU against KLF2 the result was seed-corrected z-score 0.8085.

UCCUGGUUACUGGUACUGC against RANBP10 read seed-corrected z-score -1.165. Result for UACGAAUCUGUAGUUCUUG against PPP1R13B was seed-corrected z-score 0.3585. Result for UCAAUGUCACGUGCAGUUG against MCIDAS was seed-corrected z-score 0.0008753. With UAUAGUAAUUACUACAUCC against CPVL the assay gave seed-corrected z-score -1.196. UCUCUAAGAACCAAUGUUC against MKRN2 read seed-corrected z-score -0.6952. With UCACAGGUUGGUGUGAGUG against GNG13 the assay gave seed-corrected z-score -0.2013. Result for UAUAGGACCAGAUUCGUAC against IL17RC was seed-corrected z-score 0.2458.

For AUCAUUUUAGCAGCCCUCC against HNF1B the result was seed-corrected z-score -0.6231. For UAUGGAAGAAGGACUCAGC against XYLT1 the result was seed-corrected z-score 0.3385. AUUCGUUUGAUCUCCACAC against CNOT11 read seed-corrected z-score -0.04649. Result for UCUGGUUCAGGCAGAAUCC against KIR3DX1 was seed-corrected z-score -0.5021. For UAUGGGCAAUGUGCACAGC against AARSD1 the result was seed-corrected z-score 0.3168. UACGGUACUAUGAGUUGCC against ATP13A3 gave seed-corrected z-score -0.1815.

Repeated from the top, 4 entries:

With AUCCGAGACAUGAUCACCG against SLC35E2 the assay gave seed-corrected z-score 0.5373.
With UGAUGGAUUGAGCCUGUGC against OR7G3 the assay gave seed-corrected z-score -0.6539.
With UUUCAUUCCAUAAACAUAA against SLC6A18 the assay gave seed-corrected z-score 0.4777.
With UUCCGGCUCAAAAACUGCC against ADAP1 the assay gave seed-corrected z-score -0.8494.